Test results published in the supplement of paper PMC10338343.
± gives the standard deviation. Only a part is listed here, and it is no random draw. Many of these values have a large error.

system: MIWI (PIWIL1) piRISC loaded with piRNA #1 (30 nt); test: pre-steady-state target cleavage rate (min^-1); MIWI and MILI are mouse PIWI proteins and EfPiwi is from a freshwater sponge; tags in brackets are library labels; higher = faster piRNA-guided slicing of the target; details: guide: piRNA #1 5'p-UGAGGUAGUAGGUUGUAUAGUAUCCAGAGG; auxiliary factor: 500 nM mouse GTSF1
In short: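 A burst-and-steady-state fit was used to obtain the pre-steady-state cleavage rate. The input data were sequencing reads of uncleaved targets, normalised to depth and to weakly complementary targets, from a […] transcribed, DNA-blocked target RNA library mixed with 1 nM active affinity-purified piRISC holding one synthetic guide, with or without 500 nM GTSF1 partner protein, in HEPES–potassium acetate buffer at 33 °C for 0–8 or 0–960 min. Three trials were pooled and k3 was capped at 0.0001 min^-1.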
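Also: 1 nM active piRISC with 0.1 nM target library at 33 °C single turnover.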

Row | Sequence | pre-steady-state target cleavage rate
1 | GGAGACCUAUGAAUACAAGCUACUUCCUCA | 0.000259 ± 0.01
2 | GGAGACCUAUGAAUACAACUUACUACCUCA | 0.00112 ± 0.0046
3 | GCUCAGGAUACUAAACAACCUACUACCUCA | 1.95 ± 0.12
4 | GGAGACCUAUCUAUACAACCUACAAGCUCA | 0.00185 ± 0.0044
5 | GGUCUGGAUACUAUACAACCUACAUGGAGA [g8:g28:cont:t1A] | 0.00011 ± 0.034
6 | GGUCUGGAUACUAUACUAACCUACUACCUCA | 0.000886 ± 0.0065
7 | GGACUGGAUACUAUACGAACCUACUACCUCA | 0.0008 ± 0.011
8 | GGUCUGGAUACAUACAACCUACUACCUCA | 1.44 ± 0.11
9 | CCUCUGGUUACUUUACAACCUACUACCUCA | 2.24 ± 0.16
10 | GGUCUGGAUACUUAUCAACCUACUACCUCA | 0.863 ± 0.11
11 | GGAGAGGAUACUAUACAACCCUACUACCUCA | 0.000778 ± 0.0071
12 | GGAGAGGAUACUAUACAACCUACCACCUCA | 0.849 ± 0.049
13 | GGUCCUGGAUACUAUACAACCUACUACCUCA | 1.97 ± 0.099
14 | GGAGACCUAUGAUAUGUUGCUACUACCUAA | 0.000327 ± 0.013
15 | GCUCUGGAUACUAUACAACGCUACUACCUCA | 0.00199 ± 0.0061
16 | GGUCUGGAUACUAUACAACCUACUUCCACA | 0.00085 ± 0.0058
17 | GGACUCGAUUCUAUACAACCUACUACCUCA | 1.61 ± 0.14
18 | GGUCUGGAUACUAUACAACCUACUAGGUCA | 0.000442 ± 0.0055
19 | GGACUGGAUACUAUACAACCUACACCUCA | 0.000286 ± 0.013
20 | GGAGACCUAUGAUAUGUUGCUACUCCCUCA | 0.00033 ± 0.01

Row | Sequence | pre-steady-state target cleavage rate
21 | GGAGACCUAACAAUACAACGUACUACCUCA | 0.0017 ± 0.0063
22 | GGACUGGAUACUAUACAACCUAGUACCACA | 0.00142 ± 0.0063
23 | CCUCUGGAAACUAUACAACCUACUACCACA | 2.19 ± 0.26
24 | GGACUGGAUACUAUACAACCUGACUACCUCA | 0.00196 ± 0.0049
25 | GGUCUGGAUACUAUACAACCUCACUACCUCA | 0.00192 ± 0.0039
26 | GCUCUGGAUACUAUACAACUCUACUACCUCA | 0.000764 ± 0.0083
27 | GGAGACCUAUGAUUGACAACCUACUACCUCA | 0.00382 ± 0.0039
28 | GGAGACGAUACUAUACUAGCUACUACCUCA | 0.579 ± 0.048
29 | CCUAUGGAUACUAUACAACCUACUACCUCA | 2.15 ± 0.12
30 | GGUCUGGAUACUAUACAACCUACAACCACA | 0.00192 ± 0.0027
31 | GGAGACCUAUGUAUAAAACCUACUACCUCA | 0.00207 ± 0.0025
32 | GCUCUGGAUACUAUACAAGCUACUAGCUCA | 0.745 ± 0.073
33 | GGACUGGAAACUAUACAACCUACUACCUCA | 1.44 ± 0.097
34 | GGAGACCUUACUAUACAACCUACAUGCUCA | 0.00171 ± 0.0038
35 | GGAGAGGAUACUAUACAUCCUACUUCCUCA | 0.0568 ± 0.0099
36 | GGAGACCUAUGAUGACAACCUACUACCUCA | 0.00202 ± 0.0041
37 | CCUCUGGAUACUAUACAACCUACCUACCUCA | 1.8 ± 0.11
38 | GGACUGGAUAGUAUACAACCUUCUACCUCA | 0.575 ± 0.045
39 | GGAGACCUAUGAUAUCAACCUACUACUCA | 0.000149 ± 0.015
40 | CCUGCUGGAUACUAUACAACCUACUACCUCA | 2.06 ± 0.12

From entry 37 to 38, as listed above:
Row | Sequence | pre-steady-state target cleavage rate
37 | CCUCUGGAUACUAUACAACCUACCUACCUCA | 1.8 ± 0.11
38 | GGACUGGAUAGUAUACAACCUUCUACCUCA | 0.575 ± 0.045
